Drawing on PMC7619463, this text covers binding for four substances.

Protein sequences, listed by entry. Tags and fused reporters are not part of them.
UniProt Q5J8M3: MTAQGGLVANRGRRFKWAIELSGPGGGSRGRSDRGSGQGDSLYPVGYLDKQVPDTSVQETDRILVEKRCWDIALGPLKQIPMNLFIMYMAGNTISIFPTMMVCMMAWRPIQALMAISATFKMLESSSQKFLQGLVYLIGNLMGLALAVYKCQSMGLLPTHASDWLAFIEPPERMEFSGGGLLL

These are yes or no findings as the source states them, for the method shown. Binding seen in cells or lysates may run through a third protein. Binding calls can cover weak binding; strength is not graded here.

The assay concerns the target EMC4 (human (endogenous in Flp-In T-REx 293)) (UniProt Q5J8M3). The assay can be described thus: cross-linking; 35S-labelled single-cysteine CLCN3 TMD-pair nascent chains translated in the presence of EMC3(216C) ER membranes; isolated membranes treated with 250 uM BMH on ice for 10 min; total products and non-denaturing FLAG immunoprecipitation of EMC (1% TX-100, 200 mM NaCl).
Regarding “CLCN3 TMD-pair single-cysteine variant, cysteine at a loop-proximal position of TMD1 (from UniProt P51790-1) (domain or fragment)”, the binding entry is recorded as “binds weakly”.
On to “CLCN3 TMD-pair single-cysteine variant, cysteine at a loop-proximal position of TMD2 (from UniProt P51790-1) (domain or fragment)”, for which the binding entry was “binds weakly”.
Then “CLCN3 TMD-pair single-cysteine variant, cysteine at position 172 in the translocated loop (from UniProt P51790-1) (domain or fragment)”, with “binds weakly”; and “CLCN3 TMD-pair single-cysteine variant, cysteine at position 187 in the translocated loop (from UniProt P51790-1) (domain or fragment)”, with “binds weakly”.
